PubChem BioAssay AID1508597, Cure First | 2020
Test: 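Survival screen with siRNA in ovarian cancer cells derived from patients, with or without rucaparib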 (primary screen). Cells: human ovarian carcinoma lines grown from tumours: OCI-P5x (papillary serous) and OCI-C5x (clear cell). Knock-down reagent: siRNA pool against human genes, 1.25 pmol siRNA per well. Time to read-out: 72 h or 96 h, depending on the cell culture. Conditions: rucaparib 20 µM (about IC30) or vehicle, present until read-out. Rucaparib or vehicle: Rucaparib. Cell line: OCI-P5x (serous). Measured: 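ATP luminescence measured at 72 or 96 h according to the culture, then normalised and expressed as percent viability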. Direction: viability, normalised: higher = more viable cells remaining. Rule for the call: 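a well counts as a hit if its normalised viability is under 80 percent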. Meaning of the calls: active = viability under 80%; inactive = viability 80% or more.
Shown is an unselected part of the about 2,100 reagents, under one of the conditions tested. 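Calls flag viability under 80% in either arm, not effects specific to rucaparib; the reference for percent is not stated.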 A reagent listed more than once was tested more than once; the source does not tell the runs apart. The record does not give: the 100% reference.

What did the screen give for POLK (GeneID 51426) [SID405527873], technical replicate 1?
viability, normalised (%): 64.2; Call: active

For POLK (GeneID 51426) [SID405527873], technical replicate 1, what does the deposit list?
viability, normalised (%): 80.7; Call: inactive

What did the screen give for POLK (GeneID 51426) [SID405527873], technical replicate 2?
viability, normalised (%): 63.9; Call: active

With POLK (GeneID 51426) [SID405527873], technical replicate 2, how do the results read?
viability, normalised (%): 80.6; Call: inactive

With POLK (GeneID 51426) [SID405527873], technical replicate 3, what does the deposit list?
viability, normalised (%): 73.4; Call: active

For POLK (GeneID 51426) [SID405527873], technical replicate 3, what does the deposit list?
viability, normalised (%): 67.3; Call: active

With PHF12 (GeneID 57649) [SID405527141], technical replicate 1, how do the results read?
viability, normalised (%): 61; Call: active

With PHF12 (GeneID 57649) [SID405527141], technical replicate 2, how do the results read?
viability, normalised (%): 49.4; Call: active

For PHF12 (GeneID 57649) [SID405527141], technical replicate 3, how do the results read?
viability, normalised (%): 54.6; Call: active

With ABCC1 (GeneID 4363) [SID405527750], technical replicate 1, what does the deposit list?
viability, normalised (%): 92; Call: inactive

What is on record for ABCC1 (GeneID 4363) [SID405527750], technical replicate 2?
viability, normalised (%): 97.2; Call: inactive

How did the screen score ABCC1 (GeneID 4363) [SID405527750], technical replicate 3?
viability, normalised (%): 70.4; Call: active

3 entries already listed, ordered by “viability, normalised (%)”, descending.
ABCC1 (GeneID 4363) [SID405527750], technical replicate 1: viability, normalised (%) = 92; Call = inactive
PHF12 (GeneID 57649) [SID405527141], technical replicate 3: viability, normalised (%) = 54.6; Call = active
PHF12 (GeneID 57649) [SID405527141], technical replicate 2: viability, normalised (%) = 49.4; Call = active

The results go on.
For ATXN7L3 (GeneID 56970) [SID405528004], technical replicate 1, how do the results read?
viability, normalised (%): 58.7; Call: active

For ATXN7L3 (GeneID 56970) [SID405528004], technical replicate 2, how do the results read?
viability, normalised (%): 72.3; Call: active

With ATXN7L3 (GeneID 56970) [SID405528004], technical replicate 3, how do the results read?
viability, normalised (%): 64.1; Call: active

What is on record for NFAM1 (GeneID 150372) [SID405527068], technical replicate 1?
viability, normalised (%): 54; Call: active

For NFAM1 (GeneID 150372) [SID405527068], technical replicate 2, how do the results read?
viability, normalised (%): 60.4; Call: active

What is on record for NFAM1 (GeneID 150372) [SID405527068], technical replicate 3?
viability, normalised (%): 60; Call: active

What did the screen give for L3MBTL3 (GeneID 84456) [SID405526950], technical replicate 1?
viability, normalised (%): 67.1; Call: active

What is on record for L3MBTL3 (GeneID 84456) [SID405526950], technical replicate 2?
viability, normalised (%): 64.2; Call: active

For L3MBTL3 (GeneID 84456) [SID405526950], technical replicate 3, how do the results read?
viability, normalised (%): 73.3; Call: active

For PDE6C (GeneID 5146) [SID405526696], technical replicate 1, how do the results read?
viability, normalised (%): 36.8; Call: active

How did the screen score PDE6C (GeneID 5146) [SID405526696], technical replicate 2?
viability, normalised (%): 40.1; Call: active

What is on record for PDE6C (GeneID 5146) [SID405526696], technical replicate 3?
viability, normalised (%): 42; Call: active

What did the screen give for XPO5 (GeneID 57510) [SID405526635], technical replicate 1?
viability, normalised (%): 78.2; Call: active

What did the screen give for XPO5 (GeneID 57510) [SID405526635], technical replicate 2?
viability, normalised (%): 70.3; Call: active

For XPO5 (GeneID 57510) [SID405526635], technical replicate 3, what does the deposit list?
viability, normalised (%): 78.3; Call: active
